From article doi:10.1101/2020.04.12.019257
Results are given in words; binding and its absence hold for the method and conditions named. In cells and extracts the contact can be indirect.

Protein sequences, listed by entry. Tags and fused reporters are not part of them.
UniProt P90916: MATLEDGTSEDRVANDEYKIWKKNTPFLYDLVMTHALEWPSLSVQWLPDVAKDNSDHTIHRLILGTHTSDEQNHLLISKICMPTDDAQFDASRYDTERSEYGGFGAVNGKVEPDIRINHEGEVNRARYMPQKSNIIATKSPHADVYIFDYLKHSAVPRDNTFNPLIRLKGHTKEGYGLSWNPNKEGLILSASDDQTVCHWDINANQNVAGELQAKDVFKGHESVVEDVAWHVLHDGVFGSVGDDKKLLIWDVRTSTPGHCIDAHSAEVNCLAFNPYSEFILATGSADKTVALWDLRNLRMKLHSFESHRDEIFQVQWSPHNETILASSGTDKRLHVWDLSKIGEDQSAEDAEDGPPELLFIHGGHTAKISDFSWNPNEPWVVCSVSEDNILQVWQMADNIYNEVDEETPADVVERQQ
UniProt Q20060: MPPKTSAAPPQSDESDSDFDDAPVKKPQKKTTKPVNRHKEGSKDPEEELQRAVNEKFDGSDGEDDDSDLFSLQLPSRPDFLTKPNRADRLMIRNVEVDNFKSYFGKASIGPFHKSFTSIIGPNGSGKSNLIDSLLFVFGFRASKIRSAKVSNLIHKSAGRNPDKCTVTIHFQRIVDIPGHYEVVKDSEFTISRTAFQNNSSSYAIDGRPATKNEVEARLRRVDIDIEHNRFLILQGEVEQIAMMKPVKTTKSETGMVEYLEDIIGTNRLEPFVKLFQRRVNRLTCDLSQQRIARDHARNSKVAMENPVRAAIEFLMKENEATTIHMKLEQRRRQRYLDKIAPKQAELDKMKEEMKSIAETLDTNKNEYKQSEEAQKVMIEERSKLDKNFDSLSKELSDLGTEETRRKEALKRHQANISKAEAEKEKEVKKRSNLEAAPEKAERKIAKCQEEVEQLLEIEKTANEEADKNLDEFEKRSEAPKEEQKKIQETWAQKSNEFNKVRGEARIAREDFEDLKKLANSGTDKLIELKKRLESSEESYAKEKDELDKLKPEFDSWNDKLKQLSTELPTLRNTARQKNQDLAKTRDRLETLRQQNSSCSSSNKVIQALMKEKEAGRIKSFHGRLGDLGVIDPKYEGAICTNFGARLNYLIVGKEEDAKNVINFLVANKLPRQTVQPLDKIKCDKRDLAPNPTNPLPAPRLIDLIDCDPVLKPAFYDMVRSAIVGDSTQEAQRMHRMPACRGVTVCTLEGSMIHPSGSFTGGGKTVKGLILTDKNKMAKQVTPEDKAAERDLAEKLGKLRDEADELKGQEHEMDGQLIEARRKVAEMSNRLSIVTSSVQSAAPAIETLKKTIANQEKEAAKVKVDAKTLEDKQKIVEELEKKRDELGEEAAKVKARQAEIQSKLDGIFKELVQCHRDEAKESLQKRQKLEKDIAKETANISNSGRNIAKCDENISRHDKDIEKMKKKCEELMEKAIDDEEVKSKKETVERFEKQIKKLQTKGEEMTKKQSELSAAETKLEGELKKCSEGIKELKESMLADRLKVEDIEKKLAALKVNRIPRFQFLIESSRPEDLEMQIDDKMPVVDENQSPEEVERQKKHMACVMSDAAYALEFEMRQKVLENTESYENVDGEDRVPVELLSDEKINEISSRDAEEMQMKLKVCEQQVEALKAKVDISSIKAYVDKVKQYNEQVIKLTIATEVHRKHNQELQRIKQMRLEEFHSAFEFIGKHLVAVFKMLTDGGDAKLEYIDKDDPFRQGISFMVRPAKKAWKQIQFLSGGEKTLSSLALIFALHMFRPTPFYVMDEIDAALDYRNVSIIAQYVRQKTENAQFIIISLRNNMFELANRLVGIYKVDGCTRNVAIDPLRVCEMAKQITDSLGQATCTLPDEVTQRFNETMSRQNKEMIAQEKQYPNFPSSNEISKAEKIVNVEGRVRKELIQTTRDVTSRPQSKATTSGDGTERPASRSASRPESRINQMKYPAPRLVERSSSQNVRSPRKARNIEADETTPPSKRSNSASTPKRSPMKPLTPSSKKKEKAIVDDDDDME

Target: RbAp46/48^LIN-53 (C. elegans) (UniProt P90916)
Assay: co-IP

binding: no binding
Substance: condensin II subunit SMC-4 (from UniProt Q20060 1-1549)
